Results are given in words; binding and its absence hold for the method and conditions named. In cells and extracts the contact can be indirect. Some entries that bind do so weakly or less than the wild type. Sequences can lack the tags named with a protein.
Biological target: ErbB2/ECD-Fc, recombinant chimera of human ErbB2 ECD (Thr23-Thr652) and the Fc fragment of human IgG1 (human) (UniProt P04626)
Assay: pull-down with protein G-sepharose, SDS-PAGE, silver stain; PEPD 0.04, 0.2 or 1 µM with 0.04 µM ErbB2/ECD-Fc

B1: Recombinant human PEPD (peptidase D, prolidase), wild type, 6×His tagged at the carboxy terminus (ligand)
chain: MAAATGPSFWLGNETLKVPLALFALNRQRLCERLRKNPAVQAGSIVVLQGGEETQRYCTDTGVLFLQESFFHWAFGVTEPGCYGVIDVDTGKSTLFVPRLPASHATWMGKIHSKEHFKEKYAVDDVQYVDEIASVLTSQKPSVLLTLRGVNTDSGSVCREASFDGISKFEVNNTILHPEIVESRVFKTDMELEVLRYTNKISSEAHREVMKAVKVGMKEYGLESLFEHYCYSRGGMRHSSYTCICGSGENSAVLHYGHAGAPNDRTIQNGDMCLFDMGGEYYSVASDITCSFPRNGKFTADQKAVYEAVLLSSRAVMGAMKPGDWWPDIDRLADRIHLEELAHMGILSGSVDAMVQAHLGAVFMPHGLGHFLGIDVHDVGGYPEGVERIDEPGLRSLRTARHLQPGMVLTVEPGIYFIDHLLDEALADPARASFLNREVLQRFRGFGGVRIEEDVVVIDSGIELLTCVPRTVEEIEACMAGCDKAFTPFSGPKHHHHHH
notes: Made in bacteria (pBAD/Thio-TOPO, without the N-terminal Thio) and purified on nickel; also called WT-PEPD; rhPEPD
binding: binds

Source: patent publication US20240293518A1 (HEALTH RESEARCH, published 2024)
